Data reported in publication PMC7819943, “Rice protein-binding microarrays: a tool to detect cis-acting elements near promoter regions in rice”.
The list shows a part of the results.

Molecular target: T1, OsSMF1 (Oryza sativa, UniProt Q6ZLB0 1-436)
T1 sequence: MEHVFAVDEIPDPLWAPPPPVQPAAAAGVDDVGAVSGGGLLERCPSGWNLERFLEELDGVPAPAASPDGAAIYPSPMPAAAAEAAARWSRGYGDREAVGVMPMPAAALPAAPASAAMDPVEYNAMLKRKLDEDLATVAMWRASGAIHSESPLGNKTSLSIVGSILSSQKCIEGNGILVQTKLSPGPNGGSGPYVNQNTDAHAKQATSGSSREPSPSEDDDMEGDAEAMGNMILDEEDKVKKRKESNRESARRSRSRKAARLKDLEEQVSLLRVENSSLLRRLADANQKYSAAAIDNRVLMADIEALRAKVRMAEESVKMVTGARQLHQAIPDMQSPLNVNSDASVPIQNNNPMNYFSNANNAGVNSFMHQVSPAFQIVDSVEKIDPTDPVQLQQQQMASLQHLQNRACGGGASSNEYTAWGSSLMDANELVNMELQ
Assay: protein-binding microarray (RPBM); PBS, 2% BSA, 51.3 ng/ul salmon testes DNA, 50 uM zinc acetate, 200 nM TF, 25 C, 1 h; high values mean tight binding
Settings: protein: recombinant; tags: N-terminal polyhistidine and DsRed monomer fusion (pET32a); chain copies: 2; label: CyDye5-dUTP incorporated in the synthesized complementary strand; 3' TTTTT single-stranded linker to array surface; dsDNA, one strand shown
Procedure, shortened: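 Binding signal is reported as fluorescence intensity per feature (arbitrary units) from an Axon 4000B scanner. Incubation used 200 nM of each Ni–NTA-purified, N-terminally polyhistidine- and DsRed-fused transcription factor from E. coli BL21-CodonPlus on a double-stranded custom Agilent array for 1 h at 25 °C, with 50 µM zinc acetate in the buffer, followed by washing.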

Sequence	binding signal
AAGGCAATTCGAACTGGCGCCTGCATCGCCGACGTGGCGCCGGAGTCACCTAGTGCAG	15100 fluorescence intensity (a.u.)
ACCTTTTCTGCGCACTACTACTAGTAGTAGTATTTCGTCCCGGAGTCACCTAGTGCAG	3230 fluorescence intensity (a.u.)
AGCCGAGCCCCAGTCACGTCACGTCACCGCATCGCATGGGCGGAGTCACCTAGTGCAG	4920 fluorescence intensity (a.u.)
TGTTTGGATAATGGAAAATGTGGAGTGGAATTGGGATTGACGGAGTCACCTAGTGCAG	27600 fluorescence intensity (a.u.)
GTCATTGGGTTGGGAATGGCCTAATTGGCTGACGCCACAACGGAGTCACCTAGTGCAG	5280 fluorescence intensity (a.u.)
TTATTTACTGAGTTCGGTTGCTATTGCACTGGGTAGGAGTCGGAGTCACCTAGTGCAG	3630 fluorescence intensity (a.u.)
CATCTGCACGCATGAGTGAGCACACACGCAACACGATCGTCGGAGTCACCTAGTGCAG	3670 fluorescence intensity (a.u.)
CATGGAAGAGATAGAGCGAGAACTGCAAAGGAAAGACAAACGGAGTCACCTAGTGCAG	31000 fluorescence intensity (a.u.)
GCACGGCCTGCCGCGGCCCGTGGAAGGTGACGTCGCCGCCCGGAGTCACCTAGTGCAG	3430 fluorescence intensity (a.u.)
CATGCAATGTAGTTTCAGAGATCAGAGTCGAGACTGTCAACGGAGTCACCTAGTGCAG	3390 fluorescence intensity (a.u.)
AATTCTGTCCTGCTACTTTAATTTCGTTGAGGAATTCGGCCGGAGTCACCTAGTGCAG	3180 fluorescence intensity (a.u.)
CGCGCCACGGCGCACACGTGGCGCCGGCCGGAGCGCGCGCCGGAGTCACCTAGTGCAG	6100 fluorescence intensity (a.u.)
CCACAAGTAGATCGACGGAGACATTCTACTTGGCATGCATCGGAGTCACCTAGTGCAG	3340 fluorescence intensity (a.u.)
TCGATCCATCTGTGACAACTCTGTACCGAGTGACTGTGTGCGGAGTCACCTAGTGCAG	5080 fluorescence intensity (a.u.)
AGCCAGCCCAAAAGCCACGCCGTCCACTCCATCTCCGCCTCGGAGTCACCTAGTGCAG	48000 fluorescence intensity (a.u.)
CTCTTCTCTCCTCCACGCAAGCCATTCGCCTATGTGGATTCGGAGTCACCTAGTGCAG	5240 fluorescence intensity (a.u.)
GATTAATAGCAACCAAAACTCCTAAAGTACTAGCACGTGGCGGAGTCACCTAGTGCAG	5720 fluorescence intensity (a.u.)
AGCTCCAATACATCACGCTGCGTTTGCTCCATATCCCATTCGGAGTCACCTAGTGCAG	3760 fluorescence intensity (a.u.)
GATATTTGTGAGTCGCCGCGTCGGACGGACCACGTGGTTGCGGAGTCACCTAGTGCAG	6590 fluorescence intensity (a.u.)
CACAGCCGTCCATACCAGCATCCAACGGCCACGATCCTCCCGGAGTCACCTAGTGCAG	26000 fluorescence intensity (a.u.)
GGCGTCGCTCGCTCGCGCCTCGCCGCGTGGCTGGTTTGCACGGAGTCACCTAGTGCAG	5360 fluorescence intensity (a.u.)

No new results follow: entries from further up.
Sequence	binding signal
CATGCAATGTAGTTTCAGAGATCAGAGTCGAGACTGTCAACGGAGTCACCTAGTGCAG	3390 fluorescence intensity (a.u.)
AATTCTGTCCTGCTACTTTAATTTCGTTGAGGAATTCGGCCGGAGTCACCTAGTGCAG	3180 fluorescence intensity (a.u.)
CGCGCCACGGCGCACACGTGGCGCCGGCCGGAGCGCGCGCCGGAGTCACCTAGTGCAG	6100 fluorescence intensity (a.u.)

Further entries

Sequence	binding signal
GGCCCAATACCACATGTGACATCTCAGCCCACTAGGCCCACGGAGTCACCTAGTGCAG	3670 fluorescence intensity (a.u.)
CGGCTCGAGCTCGTCCTCTCCCTCCGGAGTCAGCGGCGGCCGGAGTCACCTAGTGCAG	3390 fluorescence intensity (a.u.)
AGATCGGCGGAGGCGGGCGTGAGCGGTGGCGGTGAGCGAGCGGAGTCACCTAGTGCAG	3260 fluorescence intensity (a.u.)
TGTGGACAAATCATTCGGGGTGACATTTGTGTGTTCTTGTCGGAGTCACCTAGTGCAG	3160 fluorescence intensity (a.u.)
CAACGAGTGTATTGTTGTATGTAAGGCTGATGTTGTCAAGCGGAGTCACCTAGTGCAG	3810 fluorescence intensity (a.u.)
ACTATGCTTGTGTTTAGTGCCACGTTAAAATTGGAAGTTTCGGAGTCACCTAGTGCAG	4620 fluorescence intensity (a.u.)
AAAATCTTGCAAGTGCACACATACAAACACTTGTAGTTTGCGGAGTCACCTAGTGCAG	3140 fluorescence intensity (a.u.)
GTAATACAGACACGTGGTATTGATGTACGTAGCACATGGTCGGAGTCACCTAGTGCAG	7180 fluorescence intensity (a.u.)
GACACTTTCACCATGGAAGATTGCTGCAGTATGACATGATCGGAGTCACCTAGTGCAG	3240 fluorescence intensity (a.u.)
CATTAAAGTTCCACGCGCCCTTGACATGTAAAGTGCATTTCGGAGTCACCTAGTGCAG	14900 fluorescence intensity (a.u.)
CAAAGCAGCAAAGACAATTTCATGGTCGTTCTCTTATCCCCGGAGTCACCTAGTGCAG	3410 fluorescence intensity (a.u.)
CCACGGGCTACAAAGCACGCGCGTCACTCGCTCTCGCGGCCGGAGTCACCTAGTGCAG	4390 fluorescence intensity (a.u.)
CCACCCGCTCGCCCGTCCGTTCGATTCGACGACACCTTCACGGAGTCACCTAGTGCAG	3860 fluorescence intensity (a.u.)
GCCGCCCGCTGGAGGTGCAATAGAGGGCGGAGCAGTAAGTCGGAGTCACCTAGTGCAG	4610 fluorescence intensity (a.u.)
GATTGGACGATGACCTCGTCATTCTTCCGGGGTGTACATTCGGAGTCACCTAGTGCAG	4140 fluorescence intensity (a.u.)
TAGCCTGTGTCATCAGTTTTCTGAACATGTGTGTCATCAGCGGAGTCACCTAGTGCAG	5100 fluorescence intensity (a.u.)
CCAGGAGGGTGAGCTTGATGCAGGGGCGGGTGCGGGCGAGCGGAGTCACCTAGTGCAG	3310 fluorescence intensity (a.u.)
GCCACCATCTCATCGGATAGAATGTGGGGTACACGTGCCGCGGAGTCACCTAGTGCAG	5570 fluorescence intensity (a.u.)
TTGATGCAATGGTTGCATGTGTCATATTTGTGCAATACCTCGGAGTCACCTAGTGCAG	5220 fluorescence intensity (a.u.)
GGTTACGTGCAGATCCTGACGCGATCTACCTAGCATTCTCCGGAGTCACCTAGTGCAG	5230 fluorescence intensity (a.u.)
ATTCTTCATTCTCATGTGATAATATCTAATTTTGACTGTACGGAGTCACCTAGTGCAG	3190 fluorescence intensity (a.u.)
